Data published in PubChem BioAssay AID504466 (National Center for Advancing Translational Sciences (NCATS), 2011).
Screen size: about 330,000 compounds; about 4,200 (1.3%) were called active. Roughly 6% stayed inconclusive and do not appear here. The call rests on the fitted dose curve; in most records, active means well fitted activation curve with a large enough effect; inconclusive means small, poorly fitted or top-dose-only effect; inactive means no such curve, though single readings can be large or run the other way. The list shows a part of the results, in another mix than the full data. The source gives no active or inactive call for entries shown without one.

Assay: qHTS screen for small molecules that induce genotoxicity in human embryonic kidney (HEK293T) cells expressing luciferase-tagged ELG1; further: nearly all actives have a fitted effect of over 60% in size; on activity change, positive = activation: % of control where 0% means no effect
Conditions: HEK293T ELG1-luciferase reporter, luminescence, 16 h; activity change, positive = activation: at 46 µM (top of the series)
Excerpt: NIH Molecular Libraries Probe Production Network [MLPCN] NIH Chemical Genomics Center [NCGC] MLPCN Grant: 1 R03 MH092164-01 Assay Provider: Kyungjae Myung, NHGRI, NIH Keywords: MLPCN, qHTS, NCGC, genotoxicity, cancer Assay Overview: Cancer cells divide rapidly compared to normal cells in the body. During cell division, cancer cells need to duplicate their genome by DNA replication. The failure of genome duplication leads to cancer cells' death. Therefore, inhibitors of DNA replication could specifically kill cancer cells. Based on this concept, many chemotherapeutic agents were developed and have been used to treat cancer patients. However, there are a limited number of agents available in the clinical setting, and some of those that do exist have low efficacy and severe side effects. Therefore, if we can find the compounds that effectively block DNA replication either by directly damaging DNA or by inhibiting other cellular mechanisms, the options for cancer treatment will be broadened. With this in mind, we developed a quantitative high-throughput ELG1-luciferase reporter gene assay. Since the level of human ELG1 protein is enhanced in response to genetic stresses, increases in luciferase activity can be used to identify compounds that cause genetic stress.
Assay Protocol Summary: For genotoxicity screening, 2,000 cells in 5 uL/well were dispensed into white, solid-bottom 1536-well plates using a solenoid-based dispenser. Following transfer of 23 nL compound or DMSO vehicle by a pin tool, the plates were incubated 16 hr at 37 °C and 5% CO2. 5 ul ONE-Glo (Promega) was then added to each plate and following a 30 min incubation at room temperature, luciferase activity was quantified on a ViewLux CCD-based plate reader.
Potency means the concentration at half of the fitted maximal effect.

Compound | activity change, positive = activation | Potency
O=C(NC1CCCCC1)c1cccc(S(=O)(=O)N2CCCCC2)c1 | 9.3% | –
COC(=O)c1cc2n(n1)CCN(Cc1ccc(C)cc1)C2=O | -0.579% | –
COC(=O)Cc1ccc(NC(=O)c2ccc(Br)o2)cc1 | – | active: 18400 nM
CS(=O)(=O)n1nc(-c2ccccc2)nc1NCc1ccco1 | 9.74% | –
Cc1ccc(S(=O)(=O)n2nccc2-c2c(-c3ccc(Cl)cc3)noc2C)cc1 | inactive: -24.4% | –
S=c1[nH]nc(-c2ccco2)n1Cc1ccccc1 | 38% | –
COC(=O)c1ccc(C(=O)OC)c(NC(=O)COC(=O)CCOc2ccc(C)cc2)c1 | 15.7% | –
Cn1c(=O)c2c(ncn2CCCC(=N)N2CCOCC2)n(C)c1=O | 0.0403% | –
Cc1cc(N2CCOCC2)ccc1/C=C\[N+](=O)[O-] | inactive: -21.4% | –
Cc1ccc(C#N)c(SCC(=O)Nc2nccs2)n1 | – | active: 1830 nM
CC(=O)c1c(OC(=O)c2ccc(C)cc2)c2ccccc2n1C | inactive: -40.5% | –
CCOC(=O)C1=NOC(Cn2cc(C(C)=O)c(=O)[nH]c2=O)C1 (configuration not stated) | 9.59% | –
CCCOC1CCCN(C(=O)c2cc(Cl)c(Cl)cc2C(=O)O)C1 (configuration not stated) | 58.1% | –
O=C(Nc1ccc(F)cc1)C(c1ccccc1)N1CCN(C(=O)c2ccco2)CC1 (configuration not stated) | 7.05% | –
COc1cccc(/C=N/Nc2ccc([N+](=O)[O-])cn2)c1O | – | active: 2590 nM
CCn1c2ccccc2c2nnc(SCCCn3c(=O)[nH]c4ccccc43)nc21 | inactive: -30.5% | –
CCc1nn2cc(-c3ccccc3)nc2s1 | -1.11% | –

Copied from the entries so far, three compounds:
Compound | activity change, positive = activation | Potency
Cc1cc(N2CCOCC2)ccc1/C=C\[N+](=O)[O-] | inactive: -21.4% | –
Cc1ccc(C#N)c(SCC(=O)Nc2nccs2)n1 | – | active: 1830 nM
CC(=O)c1c(OC(=O)c2ccc(C)cc2)c2ccccc2n1C | inactive: -40.5% | –
